Primary screen of a compound library

Amino acid sequences for entries named in this document (tags omitted).
UniProt E9BF75, entry or part of it: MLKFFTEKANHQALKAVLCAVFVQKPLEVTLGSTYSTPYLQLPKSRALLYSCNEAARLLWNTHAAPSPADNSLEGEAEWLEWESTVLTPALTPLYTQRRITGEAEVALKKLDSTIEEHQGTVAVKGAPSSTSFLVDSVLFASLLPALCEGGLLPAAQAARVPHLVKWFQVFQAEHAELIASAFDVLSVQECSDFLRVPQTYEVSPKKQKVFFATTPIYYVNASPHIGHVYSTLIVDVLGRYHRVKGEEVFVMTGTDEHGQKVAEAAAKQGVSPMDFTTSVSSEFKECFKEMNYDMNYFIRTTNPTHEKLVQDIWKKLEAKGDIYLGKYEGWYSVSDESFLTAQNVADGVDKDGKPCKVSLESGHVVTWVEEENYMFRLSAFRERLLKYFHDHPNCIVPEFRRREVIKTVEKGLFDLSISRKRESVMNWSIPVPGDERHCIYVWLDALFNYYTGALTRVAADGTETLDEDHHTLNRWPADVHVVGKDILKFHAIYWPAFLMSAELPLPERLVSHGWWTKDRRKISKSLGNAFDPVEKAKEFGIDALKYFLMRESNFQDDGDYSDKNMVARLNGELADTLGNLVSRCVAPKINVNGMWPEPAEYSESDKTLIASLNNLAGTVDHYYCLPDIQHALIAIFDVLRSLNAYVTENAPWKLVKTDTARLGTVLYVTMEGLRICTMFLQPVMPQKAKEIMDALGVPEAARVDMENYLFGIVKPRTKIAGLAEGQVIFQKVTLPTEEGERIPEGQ

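Methionyl-tRNA synthetase (putative), Leishmania donovani (UniProt E9BF75). Primary screen of methionyl-tRNA synthetase; the read-out is not stated. The test concentration is not given. Values are per cent inhibition. Of about 68,000 compounds tested this way, about 24 (0.035%) reached 50% or more in at least one test.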

All values are in %. The controls that fix the scale are not given in the record; negative values are as filed. Compounds were drawn at random from those tested, without regard to their results.

{"compound": "CN(CC(=O)Nc1ccc(Br)cn1)C(=O)Cc1ccc(O)cc1", "Inhibition": 18.88}
{"compound": "Cc1ccc(CN2CC[C@H]3OCC[C@@H](C(=O)N4CCCCO4)[C@@H]3C2)o1", "Inhibition": 4.899}
{"compound": "CC(C)n1nc(CN2CCCC2=O)c2c1CN(C(=O)c1ccco1)C2", "Inhibition": 10.39}
{"compound": "CC(C)CN1CCN(C)C(CCO)C1", "stereo": "stereo not given", "Inhibition": 17.98}
{"compound": "COCCc1noc(CN2CCCC(Cn3cncn3)C2)n1", "stereo": "stereo not given", "Inhibition": 12.54}
{"compound": "Cn1c(NCC(=O)N2CCCC2)c(C#N)c(=O)n(C)c1=O", "Inhibition": -5.85}
{"compound": "CN1CCN(c2ncccn2)CC12CCC(=O)N(CC1CC1)CC2", "stereo": "stereo not given", "Inhibition": 8.511}
{"compound": "O=C([C@H]1COC[C@H]2CN(c3ccncn3)C[C@H]21)N1CCCC1", "Inhibition": 9.589}
{"compound": "COc1cc(C2SCC(=O)Nc3ccsc32)cc(OC)c1OC", "stereo": "stereo not given", "Inhibition": 9.61}
{"compound": "CN(Cc1noc(C2CC2)n1)C1CCN(CCn2cc(C#N)cn2)C1", "stereo": "stereo not given", "Inhibition": 3.989}
{"compound": "Cc1cc(NCCC(=O)NC2CCCC2)nc(-c2ccncc2)n1", "Inhibition": 23.57}
{"compound": "COc1c(CNC2CCc3ccccc32)c(C(C)C)nn1C", "stereo": "stereo not given", "Inhibition": 17.32}
{"compound": "Cc1cccc(CN2CCc3nnc(CN4CCCC4=O)n3CC2)n1", "Inhibition": 14.48}
{"compound": "Cc1cc(C(=O)N2CCCC(c3cc(C(F)(F)F)[nH]n3)C2)[nH]n1", "stereo": "stereo not given", "Inhibition": 12.29}
{"compound": "O=C(NCc1cccnc1)NC1CCCN(c2ncccn2)C1", "stereo": "stereo not given", "Inhibition": 9.399}
{"compound": "CC(C)CC(=O)Nc1cc(C(=O)N(C)C(C)C)ccc1Cl", "Inhibition": 10.65}
{"compound": "Cc1cc(Cl)ccc1S(=O)(=O)NCC(C)N1CCN(C)CC1", "stereo": "stereo not given", "Inhibition": 14.29}
{"compound": "CC(C)CCn1cc(C(C(=O)O)N2CCCN(C3CCCC3)CC2)cn1", "stereo": "stereo not given", "Inhibition": 18.02}
{"compound": "COc1cccc(CN(C)C(=O)CN2CCN(c3nccn3C)CC2)c1", "Inhibition": 11.71}
{"compound": "CN(C)CC(=O)N1C[C@@H]2CC[C@H](Oc3ccccc3)[C@@H]2C1", "Inhibition": 12.86}
{"compound": "CC(C)N1CCC(N2CCCC(C(=O)NCC3(C)COC3)C2)CC1", "stereo": "stereo not given", "Inhibition": 0}
{"compound": "Cc1cc(CN2CCOC(Cn3nc(C)cc3C)C2)on1", "stereo": "stereo not given", "Inhibition": 18.42}
{"compound": "CCS(=O)(=O)N1CCC(c2nnc(C3CC3)o2)CC1", "Inhibition": 11.18}
{"compound": "CC(C)c1nc(CNC2CCN(S(C)(=O)=O)CC2)cs1", "Inhibition": 11.68}
{"compound": "COc1ccc(C(=O)Nc2n[nH]c(C3CCCO3)n2)cc1", "stereo": "stereo not given", "Inhibition": 12.33}
{"compound": "c1cncc(CNc2ccccc2-c2nn[nH]n2)c1", "Inhibition": 12.75}
{"compound": "COCCn1cncc1Cn1cccc(C(F)(F)F)c1=O", "Inhibition": 5.797}
{"compound": "CCN1CC2(CCC1=O)CCN(Cc1cscn1)CC2", "Inhibition": 7.843}
{"compound": "CCn1cc(NC(=O)NCC(c2ccsc2)N(C)C)cn1", "stereo": "stereo not given", "Inhibition": 17.49}
{"compound": "COc1ncccc1C(=O)N1CC[C@H]2C[C@@H](c3noc(C)n3)O[C@@H]2C1", "Inhibition": 8.357}
{"compound": "COc1nc2ccn(CCc3scnc3C)c(=O)c2cc1C#N", "Inhibition": 9.536}

Repeated from the top, 3 entries:

Compound,Inhibition
CN(CC(=O)Nc1ccc(Br)cn1)C(=O)Cc1ccc(O)cc1,18.88%
Cc1ccc(CN2CC[C@H]3OCC[C@@H](C(=O)N4CCCCO4)[C@@H]3C2)o1,4.899%
CC(C)n1nc(CN2CCCC2=O)c2c1CN(C(=O)c1ccco1)C2,10.39%

Source: ChEMBL document CHEMBL3988442, “University of Dundee, Small-Polar-MMV Screening Library” (2021).